Results deposited as PubChem BioAssay AID720703 (Peter MacCallum Cancer Centre, 2013)
This is one part, drawn at random, of 714 deposited reagents. 50 of them (7%) were called active. 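Chosen pools sit at both extremes, so both low and high scores count as candidates; some pools appear more than once.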 Some reagents were tested in more than one well and are listed for each. Reagent sequences are not shown.

- Screen: 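Kinase knock-down screen for links between AT1R and EGFR signalling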 (primary screen)
- Cells: immortalised, SV40-transformed mammary epithelial cells from human, with stable expression of tagged AT1R
- Reagents: siRNA pool against human genes, 40 nM siRNA pool per well
- Timing: 72 h from transfection to lysis and read-out
- Challenge: angiotensin II stimulation (dose and duration not given); EGFR inhibitor AG1478 also listed
- Measurement: 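ERK1/2 phosphorylation corrected for confluency, given as a robust z-score, mean over two replicate plates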
- Reading the numbers: phospho-ERK z-score: higher = more ERK phosphorylation after angiotensin II, relative to plate
- Hit rule: 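Pools were ordered by robust z-score and 50 top-ranked pools, whether they raised or lowered the signal, were chosen for secondary testing; no numeric threshold was reported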
- Calls: active = picked for secondary screen; inactive = not picked

SRP72 (GeneID 6731) [SID135623816] — phospho-ERK z-score, replicate mean = -0.26; Call = inactive
FER (GeneID 2241) [SID152156672] — phospho-ERK z-score, replicate mean = 0.23; Call = inactive
PRKCSH (GeneID 5589) [SID56479239] — phospho-ERK z-score, replicate mean = 1.15; Call = inactive
ITPK1 (GeneID 3705) [SID56479109] — phospho-ERK z-score, replicate mean = -0.83; Call = inactive
TPK1 (GeneID 27010) [SID135621256] — phospho-ERK z-score, replicate mean = 0.3; Call = inactive
PIK3CB (GeneID 5291) [SID56478474] — phospho-ERK z-score, replicate mean = 0.53; Call = inactive
CSNK1A1L (GeneID 122011) [SID135620867] — phospho-ERK z-score, replicate mean = -0.66; Call = inactive
CDK11B (GeneID 984) [SID152152958] — phospho-ERK z-score, replicate mean = 0.51; Call = inactive
BMX (GeneID 660) [SID152147462] — phospho-ERK z-score, replicate mean = -1.23; Call = active
MAPKAPK2 (GeneID 9261) [SID56478668] — phospho-ERK z-score, replicate mean = 0.04; Call = inactive
PACSIN1 (GeneID 29993) [SID56479194] — phospho-ERK z-score, replicate mean = 0.66; Call = inactive
PDGFRB (GeneID 5159) [SID152152554] — phospho-ERK z-score, replicate mean = -0.22; Call = inactive
MAP3K11 (GeneID 4296) [SID152156459] — phospho-ERK z-score, replicate mean = -1.04; Call = inactive
MYO3A (GeneID 53904) [SID152148134] — phospho-ERK z-score, replicate mean = 1.48; Call = inactive
PKLR (GeneID 5313) [SID152148534] — phospho-ERK z-score, replicate mean = -0.82; Call = inactive
PRKG1 (GeneID 5592) [SID152152064] — phospho-ERK z-score, replicate mean = 2.98; Call = active
EPHB4 (GeneID 2050) [SID152156322] — phospho-ERK z-score, replicate mean = -0.02; Call = inactive
VRK3 (GeneID 51231) [SID135620981] — phospho-ERK z-score, replicate mean = -0.22; Call = inactive
PSKH1 (GeneID 5681) [SID135620975] — phospho-ERK z-score, replicate mean = -0.24; Call = inactive
STK11 (GeneID 6794) [SID152153881] — phospho-ERK z-score, replicate mean = 0.72; Call = inactive
PEAK1 (GeneID 79834) [SID152152075] — phospho-ERK z-score, replicate mean = 1.48; Call = inactive
TSSK6 (GeneID 83983) [SID152147466] — phospho-ERK z-score, replicate mean = 5.39; Call = inactive
TSSK6 (GeneID 83983) [SID152147466] — phospho-ERK z-score, replicate mean = 0.71; Call = inactive
PDK3 (GeneID 5165) [SID152151041] — phospho-ERK z-score, replicate mean = 0.37; Call = inactive
COQ8B (GeneID 79934) [SID56478994] — phospho-ERK z-score, replicate mean = -0.46; Call = inactive
TAB1 (GeneID 10454) [SID135620883] — phospho-ERK z-score, replicate mean = -0.96; Call = inactive
MAP2K4 (GeneID 6416) [SID56478690] — phospho-ERK z-score, replicate mean = 0.61; Call = inactive
ADPGK (GeneID 83440) [SID134311981] — phospho-ERK z-score, replicate mean = 1.32; Call = inactive
PKN3 (GeneID 29941) [SID56478823] — phospho-ERK z-score, replicate mean = -0.98; Call = inactive
NME1 (GeneID 4830) [SID56479166] — phospho-ERK z-score, replicate mean = 0.88; Call = inactive
MAPK13 (GeneID 5603) [SID56478704] — phospho-ERK z-score, replicate mean = 0.12; Call = inactive
HASPIN (GeneID 83903) [SID152153141] — phospho-ERK z-score, replicate mean = 1.56; Call = inactive
MAP3K8 (GeneID 1326) [SID56478664] — phospho-ERK z-score, replicate mean = 3.02; Call = active
PRKACG (GeneID 5568) [SID56478826] — phospho-ERK z-score, replicate mean = 0.28; Call = inactive
MYLK4 (GeneID 340156) [SID152150692] — phospho-ERK z-score, replicate mean = 0.48; Call = inactive
ERN2 (GeneID 10595) [SID135620900] — phospho-ERK z-score, replicate mean = -0.42; Call = inactive
GAK (GeneID 2580) [SID152148846] — phospho-ERK z-score, replicate mean = 0.14; Call = inactive
UHMK1 (GeneID 127933) [SID152150381] — phospho-ERK z-score, replicate mean = 0.76; Call = inactive
NUAK1 (GeneID 9891) [SID56478923] — phospho-ERK z-score, replicate mean = -0.73; Call = inactive
PANK3 (GeneID 79646) [SID56479122] — phospho-ERK z-score, replicate mean = 0.64; Call = inactive
ETNK2 (GeneID 55224) [SID56478982] — phospho-ERK z-score, replicate mean = -0.08; Call = inactive
KSR2 (GeneID 283455) [SID152149204] — phospho-ERK z-score, replicate mean = 0.74; Call = inactive
CDK6 (GeneID 1021) [SID56478600] — phospho-ERK z-score, replicate mean = 0.86; Call = inactive
IRAK4 (GeneID 51135) [SID134309837] — phospho-ERK z-score, replicate mean = -0.05; Call = inactive
EFNA5 (GeneID 1946) [SID152151552] — phospho-ERK z-score, replicate mean = -0.28; Call = inactive
BMP2K (GeneID 55589) [SID135620930] — phospho-ERK z-score, replicate mean = 0.6; Call = inactive
PDIK1L (GeneID 149420) [SID152147170] — phospho-ERK z-score, replicate mean = -0.74; Call = inactive
